Source: article PMC7177722
These are yes or no findings as the source states them, for the method shown. In cells and extracts the contact can be indirect. Some binding calls cover weakened binding; strength is not graded here.

Chains of the proteins cited; added tags and fusions are not shown.
UniProt P15531: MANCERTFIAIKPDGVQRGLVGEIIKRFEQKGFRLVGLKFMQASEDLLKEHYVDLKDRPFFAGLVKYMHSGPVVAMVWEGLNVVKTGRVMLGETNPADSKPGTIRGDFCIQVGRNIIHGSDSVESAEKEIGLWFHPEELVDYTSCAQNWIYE

Target: mCherry-NME1 (human) (UniProt P15531)
Assay: FRET or BRET; FRET-FLIM (TCSPC) in live transfected HeLa cells at 37 °C; donor EGFP fusion, acceptor mCherry fusion; fraction of donors that experience FRET (DF) from a double-exponential fit; whole cells, and nucleus and cytoplasm apart; cells not irradiated or irradiated with 15 Gy gamma rays (Co-60)

| binding | Substance |
| --- | --- |
| binds | EGFP-NME1 (from UniProt P15531 1-152) |
| binds | NME1-EGFP (from UniProt P15531 1-152) |
